Measurements from US20240252583A1, “Compositions and Methods for Treating Persistent Postsurgical Pain” (priority 2021, published 2024).

System: post-incisional mechanical allodynia
Conditions: rat, in vivo
Description: Data are expressed as mean±standard error of the mean (S.E.M.), and p<0.05 was accepted as statistically significant.

In the case of `CN1CC[C@]23c4c5ccc(O)c4O[C@H]2[C@@H](O)C=C[C@H]3[C@H]1C5` [morphine], the EC50 of morphine is reported as 3.19 mg/kg.
